Article PMC10217904
Results are given in words; binding and its absence hold for the method and conditions named. In cells and extracts the contact can be indirect. Some entries that bind do so weakly or less than the wild type. Sequences can lack the tags named with a protein.

Biological target: T1, cLUC-ATPc (Arabidopsis) (UniProt P60112)
T1 sequence: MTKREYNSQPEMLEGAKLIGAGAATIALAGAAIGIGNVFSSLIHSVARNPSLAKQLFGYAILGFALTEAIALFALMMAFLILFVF
Assay: split reporter; luciferase complementation imaging (LCI): nLUC and cLUC fusions co-infiltrated 1:1 into N. benthamiana leaves, imaged 48 h after infiltration with 1 mM luciferin

- binding: binds
B1: nLUC-PHB3 (protein, UniProt O04331 1-277)
chain: MGSQQAAVSFLSNLAKAAFGLGTAATVLNTSLFTVDGGERAVIFDRFRGVMDQTVGEGTHFLIPILQRPHIFDIRTKPHTFSSISGTKDLQMVNLTLRVLSRPEVSRLPYIFQTLGLEYDEKVLPSIGNEVLKAVVAQFNADQLLTERPHVSALVRESLITRAKDFNIVLDDVAITHLSYGVEFSRAVEQKQVAQQEAERSKFVVMKADQERRAAVIRAEGESEAAQLISDATAKAGMGLIELRRIEASREIASTLARSPNVAYLPGGQSMLFALNR
